Assay [1] deals with Flag-OPN (Osteopontin) (UniProt P10451). Put plainly: co-IP; CCLP1 and HEK293T cells transfected with empty vector or Flag-OPN; total cell lysates; IP with anti-Flag antibody and immunoblot.
Assay [2] addresses β-Catenin, endogenous (human (endogenous in CCLP1 and HEK293T)) (UniProt P35222). Put plainly: co-IP; endogenous proteins; IP using anti-β-Catenin antibody with IgG as control; OPN detected by blot.
The target in assay [3] is MAPK1 (ERK2), endogenous (human (endogenous in CCLP1 and HEK293T)) (UniProt P28482). As to the kind of experiment: co-IP; endogenous proteins in CCLP1 cells; IP with anti-MAPK1 monoclonal antibody, rabbit IgG as nonspecific control; OPN detected by anti-OPN antibody.

By UniProt entry, the sequences of proteins in these tests, tags left out. Residues count along the entry.
UniProt P10451, residues 17-314: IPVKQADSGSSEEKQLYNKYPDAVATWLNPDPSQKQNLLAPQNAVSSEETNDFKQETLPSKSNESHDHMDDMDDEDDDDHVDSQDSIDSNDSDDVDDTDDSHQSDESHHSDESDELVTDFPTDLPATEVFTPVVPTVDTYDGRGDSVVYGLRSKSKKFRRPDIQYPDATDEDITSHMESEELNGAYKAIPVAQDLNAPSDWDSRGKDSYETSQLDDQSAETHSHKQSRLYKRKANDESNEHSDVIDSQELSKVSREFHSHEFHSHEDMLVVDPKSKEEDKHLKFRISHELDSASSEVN
UniProt P35222: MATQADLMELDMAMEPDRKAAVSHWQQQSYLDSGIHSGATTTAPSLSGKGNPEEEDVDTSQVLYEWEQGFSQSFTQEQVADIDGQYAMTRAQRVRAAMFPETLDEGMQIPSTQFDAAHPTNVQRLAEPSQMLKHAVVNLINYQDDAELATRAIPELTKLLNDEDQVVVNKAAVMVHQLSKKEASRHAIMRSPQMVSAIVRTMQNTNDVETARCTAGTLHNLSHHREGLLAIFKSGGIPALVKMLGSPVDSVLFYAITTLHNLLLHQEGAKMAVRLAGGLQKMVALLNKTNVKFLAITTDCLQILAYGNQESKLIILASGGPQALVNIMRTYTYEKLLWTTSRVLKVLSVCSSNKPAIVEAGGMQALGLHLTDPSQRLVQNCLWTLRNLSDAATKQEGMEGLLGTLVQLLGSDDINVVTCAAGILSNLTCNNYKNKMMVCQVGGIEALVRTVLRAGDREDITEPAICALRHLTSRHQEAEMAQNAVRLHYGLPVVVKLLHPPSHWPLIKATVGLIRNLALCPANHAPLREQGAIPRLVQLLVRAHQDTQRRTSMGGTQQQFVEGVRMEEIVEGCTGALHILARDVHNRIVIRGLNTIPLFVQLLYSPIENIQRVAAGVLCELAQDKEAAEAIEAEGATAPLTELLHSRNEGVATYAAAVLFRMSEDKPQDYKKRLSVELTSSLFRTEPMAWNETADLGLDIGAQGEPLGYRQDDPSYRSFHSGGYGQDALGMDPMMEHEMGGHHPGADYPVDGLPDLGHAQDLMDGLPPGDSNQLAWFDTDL
UniProt P28482: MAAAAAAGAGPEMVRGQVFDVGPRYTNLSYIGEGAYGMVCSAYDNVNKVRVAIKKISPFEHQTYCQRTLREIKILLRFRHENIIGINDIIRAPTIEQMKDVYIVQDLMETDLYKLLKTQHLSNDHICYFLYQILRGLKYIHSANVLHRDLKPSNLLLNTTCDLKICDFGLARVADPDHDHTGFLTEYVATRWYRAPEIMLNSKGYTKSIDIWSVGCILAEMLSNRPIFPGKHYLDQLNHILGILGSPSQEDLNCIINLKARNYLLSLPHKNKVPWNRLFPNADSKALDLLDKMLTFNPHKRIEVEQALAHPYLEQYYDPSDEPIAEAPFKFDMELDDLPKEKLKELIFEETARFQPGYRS

From article PMC5833342 come the findings set out here.

No constants are given. Whether binding was seen depends on the method and setting. In cells and extracts the contact can be indirect. Some binding calls cover weakened binding; strength is not graded here.

With “β-Catenin, endogenous (from UniProt P35222 1-781)”, the binding entry in assay [1] is “binds”. “Osteopontin (OPN), endogenous (from UniProt P10451 17-314)”: the binding entry in assay [2] and in assay [3] was “binds” throughout. Take “MAPK1 (ERK2), endogenous (from UniProt P28482 1-360)”: in assay [1], the binding entry is “binds”.
